Test results from EP1283052A1, “Pharmaceutical composition containing caspase-8 and /or caspase-9 useful for overcoming glucocorticoid- and cancer therapy-induced apoptosis of tumours” (Deutsches Krebsforschungszentrum Stiftung des öffentlichen …, priority 2001, dated 2003).
At least one compound was matched to its structure with a doubt left.

Key:
[1] = test system: P693 lung carcinoma xenografts; experiment: P693 lung carcinoma xenografts in nude mice, tumour volume; type: in vivo; details: Fig. 1a
Experimental: • (a) Human epidermoid lung cancer cells (P693) were injected into nude mice. At a tumour volume of 500 mm^3 weekly treatment with cisplatin (5mg/kg/week) was started. Cisplatin was injected intraperitoneally in the absence (CIS) or presence (DEX/CIS) of DEX which was added to the drinking water (0.28 mg/L) for the duration of the experiment. […] As controls, tumor growth of xenografts from mice which received neither cisplatin nor DEX (CO) or from mice which received DEX only (DEX) was determined. The tumour volume in each animal was measured at weekly intervals for a period of 5 weeks. Data are presented as the means +/- SD of 6 to 8 animals. • (b) The human cervical carcinoma cell lines HeLa and P5 were γ-irradiated (10 Gy) or treated with cisplatin (2 µg/ml) in the absence (white bars) or presence (black bars) of DEX (1 µM). The percentage of apoptosis was measured in untreated (CO) and stimulated cells by annexin-staining and FACS-analysis at the time points indicated. (c) P5, P693 and human leukemic T cells (CEM) cells were treated with cisplatin (2 µg/ml) in the absence or presence of DEX as indicated. 24 and 48 h following treatment cells were lysed and caspase-3 activity was determined by a fluorescent caspase-3 assay and spectroscopy.

[2] = test system: CD95-L, TRAIL and TNF-α; experiment: Western blot of death ligand expression in P5 and CEM cells; type: cell-based, human; details: DEX co-treatment (1 µM) with cisplatin, both cell lines; Fig. 2a
Experimental: • (a) Left: P5 an CEM cells were treated with cisplatin (1-5 µg/ml) in the absence or presence of DEX (1 µM) as indicated. Proteins were extracted and expression of CD95-L, TRAIL or TNF-α was detected by Western blot analysis. The size of the proteins in kDa is indicated. Right: HeLa and P5 were treated with CD95 agonistic antibody αAPO-1 (CD95, 1 µg/ml), recombinant TRAIL protein (TRAIL, 100 ng/ml) or recombinant TNF-α protein (TNF-α, 100 ng/ml) in the absence (white bars) or presence (black bars) of DEX (1 µM). 24 h later the percentage of apoptosis was determined by annexin-staining and FACS-analysis in untreated (CO) and stimulated cells at the time points indicated. • (b) P693 and CEM cells were treated with cisplatin (2 µg/ml) in the absence or presence of DEX as indicated. 24 and 48 h following treatment cells were lysed and caspase-8 activity was determined by a fluorescent caspase-8 assay and spectroscopy. • (c) P5 cells were stable transfected with empty vector (pcDNA3), or pcDNA3 vector encoding dominant negative FADD protein (FADD-DN). Proteins were extracted from both cell lines and expression of wildtype (WT) and FADD-DN (DN) was detected by Western blot. Left: Stable transfected P5 cells were treated with αAPO-1 (1 µg/ml) and 24 h later apoptosis was determined by staining with annexin/propidium iodide and flow-cytometry. […]

C[C@@H]1C[C@H]2[C@@H]3CCC4=CC(=O)C=C[C@]4(C)[C@@]3(F)[C@@H](O)C[C@]2(C)[C@@]1(O)C(=O)CO [DEX, dexamethasone]
tumour growth ([1]; DEX 0.28 mg/L in drinking water combined with cisplatin 5mg/kg/week, effect on cisplatin response): tumours grow faster in combination treatment
tumour growth ([1]; DEX only, 0.28 mg/L in drinking water): increased continuously
expression of DILs [2]: downregulated the expression of basal and induced expression of each DIL
